Test [1] concerns the target Cep3ΔN (47–608) (S. cerevisiae) (UniProt P40969). In words: cryo-EM structure.
The target in a further test is Ctf13 (S. cerevisiae) (UniProt P35203). In words: cryo-EM structure.

Sequences of proteins named here, by UniProt entry; tags and fusion partners are left off. A change or cut given only in a name is not applied to a line headed by its entry. Residues count along the entry.
UniProt P40969, residues 47-608: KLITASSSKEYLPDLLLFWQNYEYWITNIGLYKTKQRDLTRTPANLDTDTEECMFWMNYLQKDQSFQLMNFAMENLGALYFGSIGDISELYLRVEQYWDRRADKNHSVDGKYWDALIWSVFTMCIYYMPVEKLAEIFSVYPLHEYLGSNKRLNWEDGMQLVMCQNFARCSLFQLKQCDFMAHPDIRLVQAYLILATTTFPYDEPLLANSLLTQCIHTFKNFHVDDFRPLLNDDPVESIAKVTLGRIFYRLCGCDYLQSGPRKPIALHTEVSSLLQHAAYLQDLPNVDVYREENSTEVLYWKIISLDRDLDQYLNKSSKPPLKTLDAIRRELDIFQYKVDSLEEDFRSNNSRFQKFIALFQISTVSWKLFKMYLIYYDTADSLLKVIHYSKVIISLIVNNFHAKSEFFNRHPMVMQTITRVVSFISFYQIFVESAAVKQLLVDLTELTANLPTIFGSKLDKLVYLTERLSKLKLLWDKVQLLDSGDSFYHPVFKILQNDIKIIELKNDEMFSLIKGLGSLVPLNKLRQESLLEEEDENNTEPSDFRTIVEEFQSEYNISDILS
UniProt P35203: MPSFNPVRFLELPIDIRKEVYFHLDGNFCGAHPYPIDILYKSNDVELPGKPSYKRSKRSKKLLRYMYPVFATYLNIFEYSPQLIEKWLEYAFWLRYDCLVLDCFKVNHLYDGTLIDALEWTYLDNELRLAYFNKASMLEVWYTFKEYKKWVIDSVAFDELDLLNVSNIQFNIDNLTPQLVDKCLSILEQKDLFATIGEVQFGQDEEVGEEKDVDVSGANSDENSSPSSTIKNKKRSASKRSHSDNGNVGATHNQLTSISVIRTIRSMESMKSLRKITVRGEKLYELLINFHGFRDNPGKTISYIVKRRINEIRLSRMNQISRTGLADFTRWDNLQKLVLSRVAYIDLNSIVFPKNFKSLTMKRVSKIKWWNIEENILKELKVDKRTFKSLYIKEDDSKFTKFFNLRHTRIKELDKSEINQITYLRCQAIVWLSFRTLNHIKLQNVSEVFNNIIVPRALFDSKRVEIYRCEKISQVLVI
UniProt P52286: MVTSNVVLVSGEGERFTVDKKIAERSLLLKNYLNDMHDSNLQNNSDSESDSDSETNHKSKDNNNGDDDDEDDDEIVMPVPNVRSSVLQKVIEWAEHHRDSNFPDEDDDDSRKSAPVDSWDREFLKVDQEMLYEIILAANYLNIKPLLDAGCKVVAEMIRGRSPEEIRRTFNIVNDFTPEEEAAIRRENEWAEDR

These are yes or no findings as the source states them, for the method shown. Some results given as binding are weak or reduced against the parent protein; the word gives no strength.

Take Ctf13 (from UniProt P35203 1-478): the binding entry in test [1] was “binds”. For the substance Skp1 (from UniProt P52286 1-194), the binding result with Ctf13 (S. cerevisiae) was “binds”.

These data come from publication doi:10.1101/241067.
